Laboratory results as given in the supplement of paper PMC12889115.
This is one part of the list. These are raw signals, not scaled to a control.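 First-pass screen: polymyxin B was added at a level that permeabilizes the Salmonella outer membrane while sparing the inner membrane. DMSO wells, with and without polymyxin B, defined maximum growth. Because plates differed from one another, each plate's data were ranked separately and the compounds with the lowest OD600 were carried forward as hits.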

System: Salmonella enterica serovar Typhimurium SL1344
Assay: bacterial growth OD600 after 18 h with compound and polymyxin B; higher = more bacterial growth (less inhibition)
Settings: 50 µM, Mueller-Hinton broth

Row | SMILES | bacterial growth OD600 (polymyxin B 0.75 µg/mL) | bacterial growth OD600 (polymyxin B 1 µg/mL)
1 | COCC(=O)NC1CC(=O)N(CCc2cccc(Cl)c2)C1 (stereo not drawn) | 0.967 | 
2 | O=C(c1ccsc1)N1CCC(C2CCN(c3ncccn3)CC2)C1 (stereo not drawn) | 0.781 | 
3 | COc1cc([C@@H]2C[C@H]3CN(CCc4ccccc4)C(=O)[C@]34CCCN24)c(Cl)cc1O | 0.013 | 
4 | CCN1CCN(C2(C(=O)NCc3ccon3)Cc3ccccc3C2)CC1 | 0.898 | 
5 | COc1cccc(C(=O)N2CCC3(CCCN(CC4CC4)C3=O)C2)c1 (stereo not drawn) |  | 0.949
6 | CCN1CCCCC1C(=O)NCc1cccnc1Oc1ccc(C)c(F)c1F (stereo not drawn) |  | 0.946
7 | Cn1ccnc1CN1CCCC(CCC(=O)NCc2ccccc2Cl)C1 (stereo not drawn) |  | 1.05
8 | O=C(c1ccccn1)N1CCCC(CCc2ccc(F)c(F)c2)C1 (stereo not drawn) | 0.013 | 
9 | COc1ccc2c(c1)CCc1cnc(-n3ncc(C(=O)NCc4ccc5c(c4)CCCN5C)c3C)nc1-2 | 0.64 | 
10 | O=C(Nc1cccc(-c2cc3ccccc3[nH]2)c1)C1CCCN(C(=O)C2CC2)C1 (stereo not drawn) |  | 0.839
11 | c1ccc(-c2noc(CN(CC3CCC3)CC3CCCO3)n2)nc1 (stereo not drawn) |  | 0.802
12 | COc1ccc2c(c1)C=C(CN1CCC(CO)(Cc3ccccc3Cl)CC1)CO2 |  | 0.044
13 | c1ccc(OCc2noc(-c3ccc(NCC4CCCO4)nc3)n2)cc1 (stereo not drawn) |  | 0.74
14 | Cc1cc(C(=O)N2CCC(C3CCN(Cc4cccnc4)CC3)C2)nn1C (stereo not drawn) | 0.841 | 
15 | COc1cc(C)ccc1OCc1cc(C(=O)N2CCNC(=O)C2)no1 |  | 0.381
16 | CC(C)=CC(=O)N1CCCC(Nc2ccc(F)cc2)C1 (stereo not drawn) |  | 0.93
17 | Cc1cc(C)n(-c2ccc(NC(=O)C3CCN(C(=O)CCc4cnccn4)CC3)cc2)n1 |  | 0.854

Row | SMILES | bacterial growth OD600 (polymyxin B 0.75 µg/mL) | bacterial growth OD600 (polymyxin B 1 µg/mL)
18 | CC(=O)N1CCC(N2CCCC(CCc3ccccc3F)C2)CC1 (stereo not drawn) | 0.86 | 
19 | COc1ccc(NC(=O)CCC2CCCN(C(=O)CCN3CCCO3)C2)cc1Cl (stereo not drawn) |  | 0.831
20 | O=C(CCC1CCN(C(=O)c2ccc(F)cc2Cl)CC1)NCc1cccnc1 |  | 0.961
21 | COCCN1CCC(CN(C)c2nc3nonc3nc2NC2CCCC2)CC1 |  | 0.903
22 | C=CCC(O)(CC=C)CNC(=O)C1CC(Cc2ccccc2Cl)=NO1 (stereo not drawn) | 0.793 | 
23 | COc1ccc(C(=O)N2CCOC(CCCC(C)C)C2)o1 (stereo not drawn) |  | 0.868
24 | CC(Cc1cccnc1)N1CCN(c2nc(-c3ccccc3)nc3c2CCC3)CC1 (stereo not drawn) |  | 0.029
25 | CC(C)(C)NC(=O)C1CCCN(C2CCN(c3nc4ccccc4o3)CC2)C1 (stereo not drawn) | 0.75 | 
26 | O=C(c1cc(COc2cccc(C(F)(F)F)c2)on1)N1CCCC(CCCO)C1 (stereo not drawn) |  | 0.818
27 | O=C(c1c(F)cccc1F)N1CCCC(N2CCN(c3ccc(F)cc3)CC2)C1 (stereo not drawn) |  | 0.886
28 | CCC(=O)NC1CCCc2nc(N(C)C)ncc21 (stereo not drawn) |  | 0.771
29 | COCCN(C)c1ccc(-c2nc(-c3cccc(Cl)c3)no2)cn1 | 0.624 | 
30 | CC(=O)N1CCC(C(=O)NCc2cccnc2N(C)C2CCCCC2)CC1 |  | 0.89
31 | COc1cccc(CC(C2CCN(C(=O)c3ccc(F)cc3)CC2)N(C)C(=O)c2ccsc2)c1 (stereo not drawn) | 0.746 | 
32 | O=C(C1CC1)N1CCC(Oc2ccc(C(=O)N3CCC[C@H]3CO)cc2)CC1 |  | 0.877
33 | CCOC(=O)C1(CCOc2ccccc2)CCN(C(=O)NC2CCS(=O)(=O)C2)CC1 (stereo not drawn) |  | 0.974

Single values from the entries so far:
In bacterial growth OD600 (polymyxin B 1 µg/mL), O=C(CCC1CCN(C(=O)c2ccc(F)cc2Cl)CC1)NCc1cccnc1 reads 0.961
In bacterial growth OD600 (polymyxin B 1 µg/mL), CC(Cc1cccnc1)N1CCN(c2nc(-c3ccccc3)nc3c2CCC3)CC1 (stereo not drawn) reads 0.029
